Measurements reported in patent US9708498B2, “Azo compound, ink containing azo compound, display including said ink and electronic paper” (MITSUBISHI CHEMICAL CORPORATION, priority 2012, dated 2017).

Assay: Absorption spectrum of n-decane solution: solution color, absorption maximum wavelength λmax, molar extinction coefficient ε
Type: physicochemical
Details: solution color of ink in n-decane
Experimental: The solution color, absorption maximum wavelength (λmax), solubility C in 5° C. n-decane, molar extinction coefficient ε, and εC of each ink are summarized in Table 4.
One milligram of each of compound 1 and comparative compounds 1 and 2 was dissolved in 100 mL of the solvent, and the solution was examined for absorption spectrum with Hitachi Spectrophotometer U-4100 using a quartz cell having a measuring optical-path length of 10 mm. From the spectrum obtained, the absorption maximum wavelength λmax (nm) and the molar extinction coefficient E (L·mol^−1·cm^−1) were determined.

| SMILES | Color tone |
| --- | --- |
| CCCCc1ccc(N=Nc2sc(N=Nc3ccc(N(CC(CC)CCCC)CC(CC)CCCC)cc3C)c(C#N)c2C)cc1 (centres unmarked) [Compound 2] | blue |
| CCCCC(CC)CN(CC(CC)CCCC)c1ccc(N=Nc2sc(N=Nc3ccc(CCC)cc3)c(C)c2C#N)c(NC(C)=O)c1 (centres unmarked) [Compound 3] | blue |
| CCCCc1ccc(N=Nc2sc(N=Nc3cc(OCC)c(N(CC(CC)CCCC)CC(CC)CCCC)cc3OCC)c(C#N)c2C)cc1 (centres unmarked) [Compound 4] | blue |
| CCCCCc1ccc(N=Nc2cc(C(=O)OCCC)c(N=Nc3ccc(N(CC(CC)CCCC)CC(CC)CCCC)cc3CC)s2)cc1 (centres unmarked) [Compound 5] | blue |
| CCCCc1ccc(N=Nc2cc(C(=O)OCCC)c(N=Nc3ccc(N(CC(CC)CCCC)CC(CC)CCCC)cc3C)s2)cc1 (centres unmarked) [Compound 7] | blue |
| CCCCc1ccc(N=Nc2cc(C#N)c(N=Nc3sc(N(CC(CC)CCCC)CC(CC)CCCC)nc3C(C)(C)C)s2)cc1 (centres unmarked) [Compound 10] | blue |
| CCCCc1ccc(N=Nc2cc(C#N)c(N=Nc3sc(N(CC(CC)CCCC)CC(CC)CCCC)nc3C(C)(C)C)s2)c(C)c1 (centres unmarked) [Compound 11] | blue |
| CCCCCCSc1nnc(N=Nc2cc(OC)c(N(Cc3ccc(C(C)(C)C)cc3)Cc3ccc(C(C)(C)C)cc3)cc2NC(C)=O)s1 [compound 1, reference compound] | red |
